{"source": "the supplement of paper PMC7024190", "note": "Where a name gives a salt, the structure may show the parent alone. The list shows a part of the results. Repeats in this data set agree poorly, so a single value says little.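 The cells were human embryonic kidney cells carrying a Renilla luciferase gene, driven by the HSV-TK promoter, on a plasmid put in briefly by transfection. This is the first-round screen of about ten thousand compounds, looking for ones that raise reporter output.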"}
{"tested_on": "HEK 293FT", "experiment": "log relative Renilla luciferase luminescence (reporter expression vs reference, reference not stated) (log (base not stated)); higher = higher recombinant reporter expression", "conditions": "10 µM; time after transfection 48 h"}
{"molecule": "CCN(CC)CC1CCN(c2ncc3ncnc(Nc4ccc(F)c(Cl)c4)c3n2)CC1", "note": "[BIBU 1361 dihydrochloride]", "log": 0.0159}
{"molecule": "CCS(=O)(=O)N(C)[C@H]1c2cc(C#N)ccc2OC(C)(C)[C@@H]1O", "note": "[(-)-[3R,4S]-Chromanol 293B]", "log": 0.0637}
{"molecule": "O=C(O)C1=CCNCC1", "note": "[Isoguvacine hydrochloride]", "log": -0.648}
{"molecule": "CSc1cc2c(cc1C(F)(F)F)N(C(=O)Nc1cccnc1)CC2", "log": -0.0684}
{"molecule": "CCOC(=O)c1ncc2[nH]c3cccc(OC(C)C)c3c2c1C", "log": -0.139}
{"molecule": "Nc1nnc(Sc2ncc([N+](=O)[O-])s2)s1", "log": 0.031}
{"molecule": "O=C(/C=C/c1c(C(=O)O)[nH]c2cc(Cl)cc(Cl)c12)Nc1ccccc1", "note": "[Gavestinel]", "log": 0.0669}
{"molecule": "Cc1nc2c(OCc3ccccc3)cccn2c1CC#N", "log": 0.0458}
{"molecule": "COc1ccc(CCN(C)CCCOc2ccc(S(=O)(=O)c3c(C(C)C)c4ccccc4n3C)cc2)cc1OC", "log": -0.0323}
{"molecule": "CNCCC(Oc1ccc(C(F)(F)F)cc1)c1ccccc1", "note": "(stereo not given) [Fluoxetine hydrochloride]", "log": 0.0168}
{"molecule": "CC(C)Oc1cccc(-n2c(CCc3c[nH]c4ccc(Br)cc34)nc3ccccc3c2=O)c1", "log": 0.0544}
{"molecule": "Cc1ccc2c(c1)c1c3n2CCNC3CCC1", "note": "(stereo not given) [Pirlindole mesylate]", "log": 0.105}
{"molecule": "Cc1ccc(NC(=O)c2cccc(N(C)C)c2)cc1NC(=O)c1ccc(O)cc1", "log": -0.085}
{"molecule": "CCc1c2c(nc3ccc(O)cc13)-c1cc3c(c(=O)n1C2)COC(=O)[C@]3(O)CC", "log": -0.952}
{"molecule": "O=C1CCc2c(ccc3ccccc23)O1", "note": "[Splitomicin]", "log": 0.0175}
{"molecule": "Cc1cc(Cn2cnc3c2CC(C(=O)O)N(C(=O)C(c2ccccc2)c2ccccc2)C3)ccc1N(C)C", "note": "(stereo not given)", "log": -0.0903}
{"molecule": "CCC(NC(C)C)C(O)c1ccc(O)c2[nH]c(=O)ccc12", "note": "(stereo not given) [Procaterol hydrochloride]", "log": -0.0346}
{"molecule": "CN1C(=O)C(Cc2c[nH]c3ccccc23)NC1=S", "note": "(stereo not given) [Necrostatin-1]", "log": -0.0154}
{"molecule": "O=C1c2ccccc2CCC1CNCCc1ccc(O)cc1", "note": "(stereo not given) [HEAT hydrochloride]", "log": -0.0131}
{"molecule": "CC/C(=C(\\c1ccccc1)c1ccc(OCCN(C)C)cc1)c1ccccc1", "note": "[Tamoxifen citrate]", "log": 0.00213}
{"molecule": "O=[N+]([O-])c1cccc2c[nH]nc12", "log": -0.0785}
{"molecule": "CNC(=O)[C@H]1O[C@@H](n2cnc3c(NCc4cccc(I)c4)nc(Cl)nc32)[C@H](O)[C@@H]1O", "log": 0.0915}
{"molecule": "CN1CCC(=C2c3ccccc3CC(=O)c3sccc32)CC1", "note": "[Ketotifen fumarate]", "log": 0.0701}
{"molecule": "CC1(C)CCC(C)(C)c2cc(C3(c4ccc(C(=O)O)cc4)OCCO3)ccc21", "log": -0.527}
{"molecule": "CC1(C)O[C@@H]2[C@@H](CO[C@@]3(COS(N)(=O)=O)OC(C)(C)O[C@@H]23)O1", "note": "[Topiramate]", "log": -0.133}
{"molecule": "CCC(C)N(C)C(=O)c1cc2ccccc2c(-c2ccccc2Cl)n1", "note": "(stereo not given)", "log": 0.0674}
{"molecule": "COc1ccc(CN(CCN(C)C)c2ccccn2)cc1", "note": "[Mepyramine maleate]", "log": 0.00106}
{"molecule": "COc1cc2nc(N3CCN(C(=O)c4ccco4)CC3)nc(N)c2cc1OC", "note": "[Prazosin hydrochloride]", "log": 0.0428}
{"molecule": "O=C(O)C1=CCCN(CCON=C(c2ccccc2)c2ccccc2)C1", "log": 0.177}
{"molecule": "CCCCCCCC/C=C\\CCCCCCCC(=O)NCc1ccc(O)c(OC)c1", "note": "[Olvanil]", "log": -0.00758}
{"molecule": "CNC(=C[N+](=O)[O-])NCCSCc1ccc(CN(C)C)o1", "note": "[Ranitidine hydrochloride]", "log": 0.103}
{"molecule": "Cc1ccc(/C=N/NC(=O)c2ccccc2Oc2ccccc2)o1", "log": 0.0341}
{"molecule": "CC(=O)NNC(=O)N1Cc2ccccc2Oc2ccc(Cl)cc21", "log": 0.034}
{"molecule": "Nc1nc2c(ccc3ccccc32)s1", "log": -0.0334}
{"molecule": "Cc1cc2nc3c(=O)[nH]c(=O)nc-3n(C)c2cc1C=O", "log": -0.108}
{"molecule": "CC(C)Oc1ccc2c(=O)c3cc(C(=O)O)ccc3oc2c1", "log": 0.0801}
{"molecule": "O=c1cc(N2CCOCC2)oc2c(-c3ccccc3)cccc12", "log": 0.1}
{"molecule": "CC(C)c1onc(-c2c(Cl)cccc2Cl)c1COc1ccc(/C=C/c2cccc(C(=O)O)c2)c(Cl)c1", "log": 0.0175}
{"molecule": "CCN(CC)CCCCNc1ncc2cc(-c3c(Cl)cccc3Cl)c(NC(=O)NC(C)(C)C)nc2n1", "log": -1.42}
{"molecule": "CC1CCN=C(N)S1", "note": "(stereo not given) [AMT hydrochloride]", "log": -0.199}
